# The whole screen tested about 360,000 compounds, of which about 7,500 (2.1%) were called active. The shares of active, inactive and inconclusive entries below differ from those in the screen. Calls come from the whole dose curve; as a rule, active = well fitted inhibition curve with a large enough effect; inconclusive = small, poorly fitted or top-dose-only effect, or effect the other way; inactive = flat fitted curve, though single readings scatter. Where the call is inconclusive, the potency comes from a doubtful curve fit.
# Test: Nrf2 qHTS screen for inhibitors; note: nearly all actives have a fitted effect of over 60% in size
# Details: A549 ARE-Fluc reporter, luciferase luminescence, 18-24 h; series mostly up to 46 µM
# Procedure, shortened: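 A549 ARE_Fluc cells (5000/well, 5% FBS OPTI-MEM) pre-incubated 2 h, then treated with compounds 18-24 h at 37C/5% CO2 in concentration-response. CellTiter-Fluor viability read first; BugLite luciferase luminescence after 15 min at room temperature gives Nrf2 activity.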
# Potency is the fitted concentration of half-maximal effect.
row,SMILES,Potency
1,COc1ccc(OCCN2CCN(C3CC(=O)N(CCC(C)C)C3=O)CC2)cc1 (configuration not stated),"inconclusive: 29.1 µM [falling, partial curve, poor fit]"
2,COCCCN(C(=S)Nc1ccc(C)cc1Cl)C(C)c1ccncc1 (configuration not stated),"inconclusive: 4.61 µM [activator, partial curve, poor fit]"
3,COc1ccc(OC)c(NC(=O)c2ccc(NS(=O)(=O)c3c(C)noc3C)cc2)c1,"inconclusive: 8.2 µM [falling, partial curve, poor fit]"
4,COC(=O)CSc1ncc2c(n1)-c1ccccc1N(Cc1ccccc1C)S2(=O)=O,"inconclusive: 0.92 µM [falling, full curve, poor fit]"
5,CCSc1nnc([C@H](Cc2c[nH]c3ccccc23)NC(=O)OC(C)(C)C)o1,"inconclusive: 4.11 µM [falling, partial curve, poor fit]"
6,Cc1noc(C)c1S(=O)(=O)Nc1ccc2c(c1)C(=O)N([C@H](C)CO)C[C@H](C)[C@@H](CN(C)S(=O)(=O)c1ccccc1)O2,inactive
7,O=C(CN1C(=O)C(=O)N(Cc2ccco2)C1=O)c1c[nH]c2ccccc12,inactive
8,COC(=O)c1c(Cl)c2n3ccccc3c(C)c(-c3ccccc3)c-2c1C(=O)OC,"inconclusive: 5.8 µM [falling, partial curve]"
9,Cc1ccccc1CSc1nc2ccccc2c(=O)[nH]1,"inconclusive: 6.51 µM [falling, partial curve, poor fit]"
10,CCc1nnc(NC(=O)c2ccc(S(=O)(=O)N3CCCC(C)C3)cc2)o1 (configuration not stated),"inconclusive: 18.4 µM [falling, partial curve]"
11,O=C(Nc1ccccn1)c1ccc2c(c1)OCCO2,"inconclusive: 25.9 µM [activator, partial curve, poor fit]"
12,COC(=O)C1(Cc2cc(-c3ccc(OC)cc3OC)no2)CCN(C(=O)OC(C)(C)C)CC1,"inconclusive: 16.4 µM [falling, single point]"
13,O=C(CSc1n[nH]c(-c2cccnc2)n1)Nc1ccc(Br)cc1,inactive
14,CCCCCCCC(=O)OCC(=O)[C@@]1(O)CC[C@H]2[C@@H]3CCC4=CC(=O)CC[C@]4(C)[C@H]3[C@@H](O)C[C@@]21C,active: 0.461 µM
15,Cc1ccc(C2=NNC(=Nc3ccc(F)cc3)SC2)cc1,"inconclusive: 25.9 µM [falling, single point]"
16,COCc1nnc(NC(=O)c2ccc(S(=O)(=O)N(C)C3CCCCC3)cc2)o1,"inconclusive: 20.6 µM [falling, single point]"
17,Cc1cc(=O)oc2cc(NC(=O)c3ccccc3OC(F)F)ccc12,"inconclusive: 1.84 µM [activator, full curve, poor fit]"

# Three structures already listed, ordered by molar mass, descending.
row,SMILES,Potency
4,COC(=O)CSc1ncc2c(n1)-c1ccccc1N(Cc1ccccc1C)S2(=O)=O,"inconclusive: 0.92 µM [falling, full curve, poor fit]"
8,COC(=O)c1c(Cl)c2n3ccccc3c(C)c(-c3ccccc3)c-2c1C(=O)OC,"inconclusive: 5.8 µM [falling, partial curve]"
2,COCCCN(C(=S)Nc1ccc(C)cc1Cl)C(C)c1ccncc1 (configuration not stated),"inconclusive: 4.61 µM [activator, partial curve, poor fit]"
